“And” between values parts separate entries of the source, which are not always exact repeats. Equal entries are not always repeated. Hit rate of the full screen: of about 300,000 compounds, about 5,400 (1.8%) were called active. This list was built around the results that the source calls inconclusive (neither active nor inactive); the mix of calls is not that of the screen. Calls come from the whole dose curve; tested in HEK293 cells. Potencies beside an inconclusive call are fits to weak or partial responses and may not hold up.
Experiment: qHTS for inhibitors of binding or entry into cells for Marburg Virus
Conditions: Marburg virus pseudotyped entry inhibition, cell reporter; activity change, negative = inhibition: at 37.8 µM (top of the series) unless noted
With `CCOC(=O)c1c(CCl)nc2ccccc2c1-c1ccccc1` the Potency was inconclusive: 35.5 µM [inhibitor, single point]. For `CC(=O)N1N=C(c2ccc(Br)cc2)OC1(C)CC(=O)Nc1ccccc1` (stereo not given), the Potency was inconclusive: 22.4 µM [inhibitor, single point]. With `COc1ccc(-c2oc(NC(=O)CSc3nncn3C)c(C#N)c2-c2ccc(OC)cc2)cc1` the Potency was inconclusive: 22.4 µM [inhibitor, partial curve, poor fit]. For `Fc1cccc(-c2oncc2-c2nnnn2-c2ccc(Cl)cc2)c1`, the “activity change, negative = inhibition” value was inactive: -2.11%. For `CCOC(=O)/C(=C\c1ccc(OC(F)F)cc1)C1=Nn2c(nnc2-c2ccc(Cl)cc2)SC1`, the Potency was inconclusive: 29.1 µM [inhibitor, single point]. For `O=c1cc(CSc2nnc(COc3ccccc3)o2)c2ccccc2[nH]1`, the Potency was inconclusive: 5.17 µM [inhibitor, full curve, poor fit]. For `COC(=O)N[C@@H](c1ccc(Cl)cc1)C(C(C)=O)C(=O)OC` (stereo not given in full), the “activity change, negative = inhibition” value was inactive: 13.5% [at 14.2 µM]. For `Cn1cccc1/C=C1\SC(=O)N(c2ccc(O)cc2)C1=O`, the Potency was inconclusive: 2.82 µM [activator, single point]. With `O=P(O)(O)Cc1ccccc1OP(=O)(c1ccccc1)c1ccccc1` the “activity change, negative = inhibition” value was inactive: -18.9%. With `CCOc1ccc(-n2nc3c(=O)[nH]nc(C)c3c2C)cc1` the “activity change, negative = inhibition” value was inactive: -42.3%. With `COc1cc(C(=O)NCC(=O)NC(C)CCc2ccccc2)cc(OC)c1OC` (stereo not given) the Potency was inconclusive: 12.6 µM [activator, partial curve, poor fit]. In the case of `OCCCCNCc1cc(Br)ccc1OCc1ccccc1`, the Potency was inconclusive: 13 µM [inhibitor, partial curve, poor fit]. In the case of `C/C(=N\NC(=O)c1ccccc1)c1c(O)n(Cc2ccccc2)c(=O)[nH]c1=O`, the Potency was inconclusive: 5.62 µM [inhibitor, single point]. In the case of `NS(=O)(=O)c1ccc(Nc2ncccc2[N+](=O)[O-])cc1`, the Potency was inconclusive: 16.4 µM [activator, partial curve, poor fit]. For `CCOc1ccc(S(=O)(=O)N2CCCCC2)cc1NC(=O)CN1C(=O)NC(C)(c2ccc(C)cc2)C1=O` (stereo not given), the Potency was inconclusive: 10 µM [inhibitor, partial curve, poor fit]. With `CCOc1ccc(OCc2ccc(C(=O)Nc3ccc(Cl)cn3)o2)cc1` the “activity change, negative = inhibition” value was inactive: 5.34%. In the case of `COc1ccc(NC(=O)C2CCCN2C(=O)NCc2ccccc2)cc1` (stereo not given), the Potency was inconclusive: 5.62 µM [inhibitor, single point]. In the case of `Cc1ccc(NC(=O)CNc2ccccc2N2CCCC2=O)cc1S(=O)(=O)N1CCOCC1`, the Potency was inconclusive: 0.316 µM [inhibitor, full curve, poor fit]. With `O=C(C1CCN(S(=O)(=O)c2ccc(F)cc2)CC1)N1CCOCC1` the “activity change, negative = inhibition” value was inactive: 10%. For `Cn1c(COc2ccccc2)nnc1SCc1nc2ccccc2[nH]1`, the “activity change, negative = inhibition” value was inactive: 18.1%. In the case of `Cc1ccc(N(Cc2ccccc2)C(=O)c2cc(S(=O)(=O)N3CCOCC3)ccc2Cl)cc1`, the Potency was inconclusive: 35.5 µM [inhibitor, partial curve, poor fit]. With `COc1ccccc1/C=N/Nc1nc(C)cc(C)n1` the “activity change, negative = inhibition” value was inactive: 11.4% [at 46.1 µM]. With `CN(/N=C/c1cc(Cl)cc(Cl)c1O)c1c(Cl)cccc1[N+](=O)[O-]` the Potency was inconclusive: 11.2 µM [inhibitor, partial curve, poor fit]. For `C=CCN(c1ccccc1)S(=O)(=O)c1cccc(C(=O)N2CC(C)CC(C)C2)c1` (stereo not given), the Potency was inconclusive: 7.08 µM [inhibitor, full curve, poor fit]. For `Cc1cccc(OCc2nnc(SC(C)C(=O)O)n2Cc2ccccc2)c1` (stereo not given), the Potency was inconclusive: 12.6 µM [activator, partial curve, poor fit]. For `Cc1cc2nc(-c3cccc(NC(=O)COc4ccc(C(C)C)cc4)c3)oc2cc1C`, the Potency was inconclusive: 2.82 µM [activator, partial curve, poor fit]. For `COC(=O)c1cc2ccccc2c(-c2c(OC)c(C(=O)OC)cc3ccccc23)c1OC`, the Potency was active: 6.51 µM. In the case of `C=CCn1c(SCC(=O)Nc2ccc3c(c2)OCO3)nc2ccccc2c1=O`, the Potency was “inactive”. In the case of `C=CCn1c(NCc2cc(Cl)ccc2O)nc2ccccc21`, the Potency was inconclusive: 14.1 µM [inhibitor, partial curve, poor fit]. With `COc1ccc(N2CCN(CCCNC(=O)CCC(=O)N3CCOc4ccc(Cl)cc43)CC2)cc1` the Potency was inconclusive: 35.5 µM [inhibitor, single point]. For `COc1ccccc1N(C)S(=O)(=O)c1ccc(C)c(C(=O)NC(C)c2ccccn2)c1` (stereo not given), the Potency was inconclusive: 7.08 µM [inhibitor, partial curve, poor fit]. With `Cc1ccsc1C(=O)C1CCCN(Cc2cnc(N3CCOCC3)s2)C1` (stereo not given) the Potency was inconclusive: 11.2 µM [inhibitor, single point]. With `Cc1ccc(/C=N/NC(=O)Cc2c[nH]c3ccccc23)c(C)c1` the Potency was inconclusive: 35.5 µM [inhibitor, partial curve, poor fit]. In the case of `Cc1cccc(Cn2c(NCCO)nc3c2c(=O)n(C)c(=O)n3C)c1`, the Potency was inconclusive: 9.2 µM [inhibitor, partial curve, poor fit]. With `CCN(CC)C(=O)CSc1nc(N)c(C#N)c(-c2cccs2)c1C#N` the Potency was inconclusive: 20.6 µM [inhibitor, single point]. For `C/C(N)=C(/C#N)C(=O)COC(=O)c1oc2ccccc2c1COC(C)C`, the Potency was inconclusive: 0.0891 µM [activator, full curve, poor fit]. With `Cc1cc(C)cc(S(=O)(=O)c2cnc3ccccc3n2)c1` the “activity change, negative = inhibition” value was inactive: 3.15% [at 46.1 µM]. In the case of `CCN(CC(=O)Nc1c(C(=O)OC)[nH]c2ccccc12)c1ccc2c(c1)OCO2`, the Potency was active: 6.51 µM. With `CC(=O)c1c(C(C)=O)c(C)n(Cc2ccc(Cl)cc2)c1C` the Potency was inconclusive: 6.31 µM [inhibitor, partial curve, poor fit]. In the case of `Cc1oc2c(cc(NS(=O)(=O)c3ccc(F)cc3)c3ccccc32)c1C(=O)O`, the Potency was inconclusive: 5.62 µM [activator, single point]. With `Cc1cccc(C)c1NC(=O)c1cc(-c2ccccn2)nc2ccccc12` the Potency was inconclusive: 0.562 µM [inhibitor, full curve, poor fit]. With `O=C(c1cccs1)N1CCN(C(=O)c2cn(-c3ccccc3)nc2-c2ccccc2)CC1` the Potency was inconclusive: 10 µM [inhibitor, partial curve]. For `CCOc1ccc2c(O)csc2c1`, the Potency was inconclusive: 11.2 µM [activator, partial curve, poor fit]. For `Cc1c(C)n(Cc2ccc(F)cc2)c2ccc(C(=O)NCCCN3CCOCC3)cc12`, the Potency was inconclusive: 10 µM [inhibitor, partial curve, poor fit]. In the case of `CN1CCN(c2ccc(S(=O)(=O)N3CCCCC3)cc2NC(=O)COc2ccc([N+](=O)[O-])cc2)CC1`, the “activity change, negative = inhibition” value was inactive: 6.94%. In the case of `CCC(C)CCCCNC1=NCCS1` (stereo not given), the Potency was inconclusive: 35.5 µM [inhibitor, single point]. For `CN(C)C1(CNC(=O)c2cccc(S(=O)(=O)Nc3ccc(Br)cc3)c2)CCCCC1`, the Potency was inconclusive: 35.5 µM [inhibitor, single point]. For `CC(=O)Nc1ccc(/C=N/Nc2nncc3ccccc23)cc1`, the Potency was inconclusive: 35.5 µM [inhibitor, partial curve, poor fit]. In the case of `CC(C)(C)c1ccc(S(=O)(=O)/C=C\C#N)cc1`, the Potency was active: 2.51 µM. In the case of `Cc1ccsc1C(=O)C1CCCN(Cc2sc(N(C)C)nc2Cl)C1` (stereo not given), the Potency was inconclusive: 35.5 µM [inhibitor, single point]. In the case of `Cc1ccc(C)c(NC(=O)Cn2c(-c3nonc3N)nc3ccccc32)c1`, the Potency was inconclusive: 0.562 µM [inhibitor, full curve, poor fit]. In the case of `CC1CCCN(c2ccc3nc4ccccc4c(=O)n3n2)C1` (stereo not given), the Potency was inconclusive: 1.78 µM [inhibitor, full curve, poor fit]. With `COc1ccc2oc(=O)c(C(=O)N3CCN(c4cc(Cl)ccc4Cl)CC3)cc2c1` the “activity change, negative = inhibition” value was inactive: -1.86% [at 46.1 µM]. For `CCCOc1ccc(/C(O)=C2/C(=O)C(=O)N(CCCN3CCOCC3)C2c2ccncc2)cc1` (stereo not given), the “activity change, negative = inhibition” value was inactive: 0.678%. For `CCC(=O)N1CCc2cc(Br)cc(S(=O)(=O)NCCCN(CC)Cc3ccccc3)c21`, the Potency was inconclusive: 6.31 µM [inhibitor, full curve, poor fit]. In the case of `CCOc1ccccc1NC(=O)C(=O)N/N=C/c1cc(Br)ccc1O`, the Potency was active: 2.51 µM. For `COc1ccc(C(=O)/C=C/Nc2ccc(S(=O)(=O)Nc3cccc(C(C)=O)c3)cc2)cc1`, the Potency was inconclusive: 3.98 µM [inhibitor, full curve]. With `C=CCN1C(=O)NC(c2ccc(OC)cc2)(C(F)(F)F)S/C1=C(\C#N)c1nnc(N2CCOCC2)n1-c1ccccc1` (stereo not given) the Potency was “inactive and inconclusive: 35.5 µM [inhibitor, single point]”. In the case of `O=C(NC(=S)Nc1ccccc1C(=O)O)c1cncc(Br)c1`, the “activity change, negative = inhibition” value was inactive: 6.4%. With `CCCSc1cc(=O)n(-c2ccc(F)cc2)nc1C(=O)OCC` the Potency was inconclusive: 17.8 µM [activator, single point]. With `O=Cc1c(N2CCN(c3cccc(Cl)c3)CC2)nc2ccccn2c1=O` the Potency was inconclusive: 11.2 µM [inhibitor, single point]. With `CC(C)CC(=O)Nc1ccccc1N1CCN(c2ccccc2)CC1` the Potency was inconclusive: 22.4 µM [inhibitor, partial curve, poor fit]. With `CNS(=O)(=O)c1ccc2c(c1)NC(=O)C1CCCN21` (stereo not given) the Potency was inconclusive: 12.6 µM [activator, partial curve, poor fit]. For `O=C(NCc1ccccn1)c1cccs1`, the “activity change, negative = inhibition” value was inactive: 26.5%. For `Cc1cccc2[nH]c(SCC(=O)O)nc12`, the “activity change, negative = inhibition” value was inactive: -1.03% [at 46.1 µM].

Reference: PubChem BioAssay AID540276 (National Center for Advancing Translational Sciences (NCATS), 2011)
% is set by controls: 0 for no effect and ±100 for the full control effect; potency is the fitted concentration of half-maximal effect.
